# Some entries share one result that the patent states for a list of compounds. For at least one compound, name, drawing or mass did not settle the structure.
# Tested on: production of kynurenine in human gastric cancer cell line KATO-III
# Test: Inhibitory activity on the production of kynurenine (IFN-γ-treated KATO-III cells)
# Type: cell-based
# Details: 10 μmol/L test compound; KATO-III cells treated with IFN-γ, 96 hours
# Protocol: This assay was performed by a modification of the method described in J. Biol. Chem., vol. 263, pp. 2041-2048 ([…]). For culture of the human gastric cancer cell line […], RPMI 1640 (GIBCO, 11875) supplemented with 10 vol % FBS (GIBCO, 10091-148, lot. 665285) was used. One μL of a test substance in a DMSO solution was diluted with 199 μL of the culture medium and placed in wells of a 384-well plate (10 μL/well). Next, IFN-γ (Sigma, I-3265) was added to a fresh culture medium to a concentration of 31.25 ng/mL, and KATO-III cells were suspended at 50,000 cells/mL in the culture medium. Forty μL of the suspension was added to each well (2,000 cells/well) and cultured under 5% CO2 at 37° C. for 96 hours. The final concentration of DMSO was limited to 0.1 vol % or less so that DMSO itself may not affect the kynurenine concentration measured in this assay. After the culture, 10 μL of a 30 w/v % aqueous trichloroacetic acid solution was added to each well, and incubation was performed at 65° C. for 30 minutes. The plate was centrifruged at 2,500×g for 5 minutes and 15 μL of the supernatant in each well was transferred into another 384-well plate. To the transferred supernatant, 15 μL of a 2 w/v % solution of p-dimethylaminobenzaldehyde in acetic acid was added, incubation was performed at 65° C. for 20 minutes and the absorbance was measured at 480 nm.
# Sample: the absorbance value of the well to which DMSO solution containing a test substance was added and in which the cells were treated with IFN-γ.
# Blank: the absorbance value of the well to which DMSO not containing a test substance was added and in which the cells were treated with IFN-γ.
# Control: the absorbance value of the well to which DMSO not containing a test substance was added and in which the cells were not treated with IFN-γ.
# The inhibition % of each test compound was calculated by formula A1.
# In this assay, the expression of IDO in KATO-III cells is induced by IFN-γ treatment, and kynurenine in the culture medium is quantified. The kynurenine concentration in a culture medium is known to increase in proportion to the enzymatic activity of intracellular IDO (for example, J. Biol. Chem., vol. 263, pp. 2041-2048 (1988)). […] The production of kynurenine is known to be inhibited by IDO inhibitors (for example, J. Clin. Invest., vol. 117, No. 5, pp. 1147-1154 ([…])), and thus it is speculated that compounds (I) also have an inhibitory effect on IDO.
row,Compound,inhibition % of kynurenine production [%]
1,"CCCS(=O)(=O)Nc1nc2ccccc2nc1OC(C1CCN(c2ccc(C#N)nc2)CC1)C(F)(F)F (stereo not drawn) [Compound 4, N-(3-(1-(1-(6-cyanopyridin-3-yl)piperidin-4-yl)-2,2,2-trifluoroethoxy)quinoxalin-2-yl)propane-1-sulfonamido]",≥ 80
2,CCCS(=O)(=O)Nc1nc2ccccc2nc1OC(C1CCN(c2nnn(C)n2)CC1)C(F)(F)F (stereo not drawn) [Compound 11],≥ 80
3,"COCCS(=O)(=O)Nc1nc2ccccc2nc1OC(c1ccc(-c2noc(COC)n2)nc1)C(F)(F)F (stereo not drawn) [Compound 24, 2-methoxy-N-(3-(2,2,2-trifluoro-1-(6-(5-(methoxymethyl)-1,2,4-oxadiazol-3-yl)pyridin-3-yl)ethoxy)quinoxalin-2-yl) ethanesulfonamide]",≥ 80
4,"COCCS(=O)(=O)Nc1nc2ccccc2nc1OC(c1ccc(-c2noc(C)n2)nc1)C(F)(F)F (stereo not drawn) [Compound 27, 2-methoxy-N-(3-(2,2,2-trifluoro-1-(6-(5-methyl-1,2,4-oxadiazol-3-yl)pyridin-3-yl)ethoxy)quinoxalin-2-yl) ethanesulfonamide]",≥ 80
5,"CCCS(=O)(=O)Nc1nc2ccccc2nc1O[C@H](c1ccc(-c2noc(C)n2)nc1)C(F)(F)F [Compound 28, (R)-N-(3-(2,2,2-trifluoro-1-(6-(5-methyl-1,2,4-oxadiaxol-3-yl)pyridin-3-yl)ethoxy)quinoxalin-2-yl)propane-1-sulfonamide]",≥ 80
6,"COCCS(=O)(=O)Nc1nc2ccccc2nc1O[C@H](c1ccc(-c2noc(C3CC3)n2)nc1)C(F)(F)F [Compound 37, (R)-N-(3-(1-(6-(5-cyclopropyl-1,2,4-oxadiasol-3-yl)pyridin-3-yl)-2,2,2-trifluoroethoxy)quinoxalin-2-yl)-2-methoxyethanesulfonamide]",≥ 80
